Data as given in PubChem BioAssay AID1508588 (Peter MacCallum Cancer Centre, 2020).
In all, the deposit lists about 18,000 reagents; this is a part drawn at random. In the full data, 790 (4.4%) are marked active. 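Calls rest on a combination of fold-change classes in drug and vehicle arms, not all shown here.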

- Aim: 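Knock-downs boosting vemurafenib effects on melanoma cell growth or lactate release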 (primary screen)
- Cell system: human WM266.4 melanoma cells (BRAF V600 mutant)
- Knock-down reagent: siRNA pool against human genes, 40 nM
- Timing: 96 h from transfection to read-out
- Treatment: vemurafenib 300 nM (about IC25), added 48 h after transfection, for 48 h; comparison arm got DMSO vehicle only
- Detection: 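Cell gain (DAPI nuclei at end minus before drug, mean of two replicates) and medium lactate by absorbance per cell, both as ratio to non-targeting siRNA, also grouped into fold-change classes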
- Direction: cell gain with vemurafenib: higher = more cell gain than with non-targeting siRNA; lactate per cell with vemurafenib: higher = more lactate made per cell
- Call rule: 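Enhancement is called by pairing each knock-down's vehicle-arm and drug-arm fold-change classes for viability or glycolysis; which class combinations qualify is not given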
- Calls: active = enhances vemurafenib effect; inactive = no enhancement seen

gene	PubChem SID	cell gain with vemurafenib	lactate per cell with vemurafenib	call
CHPT1 (choline phosphotransferase 1)	SID135621835	0.23	1.04	inactive
GSS (glutathione synthetase)	SID134314317	0.19	0.85	inactive
NPAS4 (neuronal PAS domain protein 4)	SID152147208	0.72	0.75	inactive
DUSP10 (dual specificity phosphatase 10)	SID152152993	0.54	1.4	inactive
ZNF551 (zinc finger protein 551)	SID134319553	0.18	2.01	inactive
CSNK1G2 (casein kinase 1 gamma 2)	SID152151854	0.76	0.8	inactive
UBE2D3 (ubiquitin conjugating enzyme E2 D3)	SID135621577	0.13	0.74	inactive
NUP214 (nucleoporin 214)	SID134316287	0.69	0.54	inactive
SRRM1 (serine and arginine repetitive matrix 1)	SID152149223	0.71	0.99	inactive
SH2B1 (SH2B adaptor protein 1)	SID134318141	0.41	1.19	inactive
CT83 (cancer/testis antigen 83)	SID135624467	0.22	1.23	inactive
VTN (vitronectin)	SID152155146	0.37	1.7	inactive
CRAMP1 (cramped chromatin regulator 1)	SID152149354	1.19	0.75	inactive
ALG10B (ALG10 alpha-1,2-glucosyltransferase B)	SID135624617	0.76	0.56	inactive
TMOD4 (tropomodulin 4)	SID135623971	0.77	0.96	inactive
KHDRBS1	SID134323766	0.9	0.66	inactive
TOMM20L (translocase of outer mitochondrial membrane 20 like)	SID134329533	0.56	0.72	inactive
HOMEZ (homeobox and leucine zipper encoding)	SID135622669	0.54	1.27	inactive
FRAT1 (FRAT regulator of Wnt signaling pathway 1)	SID134316334	0.82	0.68	inactive
NHEJ1 (non-homologous end joining factor 1)	SID134318599	0.9	0.57	inactive
TMEM230 (transmembrane protein 230)	SID152152586	-0.12	1.29	inactive
GTSE1 (G2 and S-phase expressed 1)	SID152155017	0.38	0.66	inactive
PPY (pancreatic polypeptide)	SID152151330	0.64	0.44	active
SPINK1 (serine peptidase inhibitor Kazal type 1)	SID134323493	0.55	0.46	inactive
ANKRD24 (ankyrin repeat domain 24)	SID135624422	1.23	0.72	inactive
CLCN5 (Cl-/H+ antiporter 5)	SID152148100	1.04	1.36	inactive
STAB2 (stabilin 2)	SID152147486	0.4	0.38	active
SOS2 (SOS Ras/Rho guanine nucleotide exchange factor 2)	SID152153288	0.22	0.59	inactive
MARCHF1 (membrane associated ring-CH-type finger 1)	SID135621294	0.35	2.29	inactive
DRC4 (dynein regulatory complex subunit 4)	SID134315631	0.76	1.4	inactive
VPS72 (vacuolar protein sorting 72 homolog)	SID134323836	0.76	0.92	inactive
MIB2 (MIB E3 ubiquitin protein ligase 2)	SID135622920	1	0.78	inactive

Just “lactate per cell with vemurafenib” (4 entries from above):
CSNK1G2 (casein kinase 1 gamma 2) [SID152151854] = 0.8
UBE2D3 (ubiquitin conjugating enzyme E2 D3) [SID135621577] = 0.74
NUP214 (nucleoporin 214) [SID134316287] = 0.54
SRRM1 (serine and arginine repetitive matrix 1) [SID152149223] = 0.99

Further entries:
gene	PubChem SID	cell gain with vemurafenib	lactate per cell with vemurafenib	call
MICALL2 (MICAL like 2)	SID152147720	1.12	0.8	inactive
H2AC20 (H2A clustered histone 20)	SID134315775	0.89	0.92	inactive
ISG20 (interferon stimulated exonuclease gene 20)	SID134320007	0.81	1.01	inactive
SAMD4B (sterile alpha motif domain containing 4B)	SID152152762	0.17	0.72	inactive
PIK3CD-AS1 (PIK3CD antisense RNA 1)	SID135625492	0.45	1.51	inactive
DAB1 (DAB adaptor protein 1)	SID134313784	1.25	0.44	inactive
CD4 (CD4 molecule)	SID135620958	0.59	0.87	inactive
DDX10 (DEAD-box helicase 10)	SID135622207	0.39	0.78	inactive
IL7R (interleukin 7 receptor)	SID134312930	0.91	0.56	inactive
ELMOD2 (ELMO domain containing 2)	SID134320114	0.79	0.97	inactive
UPF3B (UPF3B regulator of nonsense mediated mRNA decay)	SID134317121	0.59	1.04	inactive
BPIFA3 (BPI fold containing family A member 3)	SID135621895	0.98	0.83	inactive
P2RY4 (pyrimidinergic receptor P2Y4)	SID152147446	0.24	1.69	inactive
MDFI (MyoD family inhibitor)	SID134316420	0.35	1.45	inactive
SLC39A4	SID152152174	0.41	0.88	inactive
CHN1 (chimerin 1)	SID152151314	0.41	0.94	inactive
BTLA (B and T lymphocyte associated)	SID152149394	0.69	1.02	inactive
SERPINB11 (serpin family B member 11)	SID152149200	0.59	0.91	inactive
FOXD4 (forkhead box D4)	SID135624534	0.7	0.7	inactive
SPATA8 (spermatogenesis associated 8)	SID152151720	0.64	1	inactive
OR14I1 (olfactory receptor family 14 subfamily I member 1)	SID152151685	0.39	1.5	inactive
LIG1 (DNA ligase 1)	SID135622048	0.52	1.98	inactive
GSTA3 (glutathione S-transferase alpha 3)	SID152148395	0.61	1.18	inactive
CERS1 (ceramide synthase 1)	SID135621910	0.62	0.8	inactive
PLCB4 (phospholipase C beta 4)	SID134314325	0.2	1.19	inactive
